The list does not hold the whole screen: it gathers tests that were run many times, whatever their T/C, doses with no T/C, and many T/C values between a quarter and a half above the control. Other doses and runs of a compound stand elsewhere. T/C is the treated group as % of the vehicle group. Some entries give survivors of the animals treated and no T/C: the source holds a T/C of zero for them, seemingly a mark for toxic or unscored doses. Some survivor counts are full or nearly so, which does not show that the dose was tolerated: the source hardly ever lists a survival T/C far under the control, and the zero likely stands for such cases as well. Survivors were counted at the toxicity check, usually on the fifth day, unless a day is given; later deaths do not show. Schedules are NCI's codes, read here as Q, the interval in days (D) or hours (H), X, the number of doses. Some doses were run more than once; the results are listed from low to high. For survival time, the PubChem record calls one and a half times the control and up active, and a quarter to a half above the control has no call in these data; cut-offs in other NCI protocols can differ.
System: P388 leukemia ip, CD2F1 mice, survival T/C
Assay: NCI In Vivo Anticancer Drug Screen. Data for tumor model P388 Leukemia (intraperitoneal) in CD2F1 (CDF1) mice
Details: T/C endpoint: median survival time, higher T/C = longer survival
[1] = dose: 400.0 mg/kg/injection, schedule: Q01DX001 (ip), vehicle: saline with Tween-80
[2] = dose: 200.0 mg/kg/injection, schedule: Q01DX005 (ip), vehicle: saline with Tween-80
[3] = dose: 240.0 mg/kg/injection, schedule: Q01DX005 (ip), vehicle: saline with Tween-80
[4] = dose: 64.0 mg/kg/injection, schedule: Q01DX001 (ip), vehicle: water
[5] = dose: 100.0 mg/kg/injection, schedule: Q01DX009 (ip), vehicle: saline with Tween-80
[6] = dose: 200.0 mg/kg/injection, schedule: Q01DX009 (ip), vehicle: saline with Tween-80
[7] = dose: 240.0 mg/kg/injection, schedule: Q01DX005 (ip), vehicle: Klucel (hydroxypropylcellulose) (HPC)

CC1NC(=O)NC(=O)C1(Cl)Cl (stereo not given)
survivor count (dose: 50.0 mg/kg/injection, schedule: Q01DX009 (ip), vehicle: saline): 6 of 6

CNC(=O)c1cccc2c(Nc3ccc(NS(C)(=O)=O)cc3OC)c3cccc(C)c3nc12
T/C (dose: 1.5 mg/kg/injection, schedule: Q01DX005 (ip), vehicle: water): 148 % of control
survivor count (dose: 6.0 mg/kg/injection, schedule: Q01DX005 (ip), vehicle: water): 5 of 5
survivor count (dose: 12.0 mg/kg/injection, schedule: Q01DX005 (ip), vehicle: water): 5 of 5
survivor count (dose: 12.5 mg/kg/injection, schedule: Q01DX005 (ip), vehicle: water): 5 of 5
survivor count (dose: 24.0 mg/kg/injection, schedule: Q01DX005 (ip), vehicle: water): 3 of 5
survivor count (dose: 25.0 mg/kg/injection, schedule: Q01DX005 (ip), vehicle: water): 5 of 5
survivor count (dose: 25.0 mg/kg/injection, schedule: Q01DX005 (oral), vehicle: water): 6 of 6
survivor count (dose: 50.0 mg/kg/injection, schedule: Q01DX005 (ip), vehicle: water): 5 of 5
survivor count (dose: 50.0 mg/kg/injection, schedule: Q01DX005 (oral), vehicle: water): 6 of 6
survivor count (dose: 100.0 mg/kg/injection, schedule: Q01DX005 (ip), vehicle: water): 5 of 5
survivor count (dose: 100.0 mg/kg/injection, schedule: Q01DX005 (oral), vehicle: water): 6 of 6
survivor count (dose: 200.0 mg/kg/injection, schedule: Q01DX005 (ip), vehicle: water): 1 of 5
survivor count (dose: 200.0 mg/kg/injection, schedule: Q01DX005 (oral), vehicle: water): 6 of 6

Cc1ccc(S(=O)(=O)OC2CCCCC2c2ccccc2)cc1 (stereo not given)
survivor count (dose: 6.25 mg/kg/injection, schedule: Q01DX001 (ip), vehicle: Klucel (hydroxypropylcellulose) (HPC)): 6 of 6
survivor count (dose: 50.0 mg/kg/injection, schedule: Q01DX001 (ip), vehicle: Klucel (hydroxypropylcellulose) (HPC)): 6 of 6
survivor count (dose: 100.0 mg/kg/injection, schedule: Q01DX001 (ip), vehicle: Klucel (hydroxypropylcellulose) (HPC)): 6 of 6
survivor count (dose: 200.0 mg/kg/injection, schedule: Q01DX001 (ip), vehicle: Klucel (hydroxypropylcellulose) (HPC)): 6 of 6

CN(C)c1ccc(-c2nn(C)c3nc(=O)n(C)c(=O)c-3[n+]2[O-])cc1
survivor count (dose: 12.5 mg/kg/injection, schedule: Q01DX001 (ip), vehicle: saline): 3 of 6
survivor count (dose: 25.0 mg/kg/injection, schedule: Q01DX001 (ip), vehicle: saline): 1 of 6 and 2 of 6
survivor count (dose: 50.0 mg/kg/injection, schedule: Q01DX001 (ip), vehicle: saline): 0 of 6
survivor count (dose: 100.0 mg/kg/injection, schedule: Q01DX001 (ip), vehicle: saline): 0 of 6
survivor count (dose: 200.0 mg/kg/injection, schedule: Q01DX001 (ip), vehicle: saline): 1 of 6
survivor count (dose: 400.0 mg/kg/injection, schedule: Q01DX001 (ip), vehicle: saline): 0 of 6

CCC1COC(Nc2cccc3c2CCCC3)=N1 (stereo not given)
survivor count [1]: 2 of 6

CC1CCCC(C)N1CC#CCNC(=O)C1CCC(=O)N1 (stereo not given)
survivor count (dose: 200.0 mg/kg/injection, schedule: Q01DX005 (ip), vehicle: Klucel (hydroxypropylcellulose) (HPC)): 2 of 6

COc1ccc2nc(C(=O)NC3COC(=O)C(C(C)(C)O)N(C)C(=O)CN(C)C(=O)CNC(=O)C4C(OC(C)=O)CC=NN4C(=O)C(NC(=O)c4nc5ccc(OC)cc5cc4O)COC(=O)C(C(C)(C)O)N(C)C(=O)CN(C)C(=O)CNC(=O)C4C(O)CC=NN4C3=O)c(O)cc2c1 (stereo not given)
T/C (dose: 50.0 micrograms/kg/injection, schedule: Q01DX005 (ip), vehicle: DMSO): 130 % of control
survivor count (dose: 100.0 micrograms/kg/injection, schedule: Q01DX005 (ip), vehicle: DMSO): 6 of 6
survivor count (dose: 200.0 micrograms/kg/injection, schedule: Q01DX005 (ip), vehicle: DMSO): 3 of 6
survivor count (dose: 400.0 micrograms/kg/injection, schedule: Q01DX005 (ip), vehicle: DMSO): 1 of 6
survivor count (dose: 800.0 micrograms/kg/injection, schedule: Q01DX005 (ip), vehicle: DMSO): 0 of 6

C1=C[N-]c2c3c(ccc2=C1)=CC=C[N-]3.N#[O+].O.O=N[O-].O=N[O-].[Ru+2]
T/C (dose: 6.25 mg/kg/injection, schedule: Q04DX003 (ip), vehicle: water): 131 % of control
T/C (dose: 12.5 mg/kg/injection, schedule: Q04DX003 (ip), vehicle: distilled water + Tween-80): 134 % of control
survivor count (dose: 25.0 mg/kg/injection, schedule: Q04DX003 (ip), vehicle: distilled water + Tween-80): 3 of 6
survivor count (dose: 25.0 mg/kg/injection, schedule: Q04DX003 (ip), vehicle: water): 5 of 6
survivor count (dose: 50.0 mg/kg/injection, schedule: Q04DX003 (ip), vehicle: distilled water + Tween-80): 0 of 6
survivor count (dose: 100.0 mg/kg/injection, schedule: Q04DX003 (ip), vehicle: distilled water + Tween-80): 0 of 6
survivor count (dose: 200.0 mg/kg/injection, schedule: Q04DX003 (ip), vehicle: distilled water + Tween-80): 0 of 6

CN1CCC(c2ccccc2)(C(O)(c2ccccc2)c2ccccc2)CC1
survivor count [2]: 2 of 6

COc1cc(C(c2cc3c(cc2O)OCO3)N2CCOCC2)cc(OC)c1OC (stereo not given)
survivor count [3]: 3 of 6

CC[C@@]12CN3CCc4c([nH]c5ccccc45)[C@@](C(=O)OC)(c4cc5c(cc4OC)N(C=O)[C@H]4[C@@](O)(C(=O)OC)[C@H](OC(C)=O)[C@]6(CC)C=CCN7CC[C@]54[C@@H]76)C[C@H](C3=O)[C@@H]1O2
T/C (dose: 16.0 mg/kg/injection, schedule: Q01DX001 (ip), vehicle: water): 125 and 126 % of control
T/C (dose: 32.0 mg/kg/injection, schedule: Q01DX001 (ip), vehicle: water): 144 % of control
T/C [4]: 131 % of control
survivor count [4]: 2 of 6

COc1ccc2c(NCCCCCCCCNc3c4ccc(OC)cc4nc4ccc(Cl)cc34)c3cc(Cl)ccc3nc2c1
survivor count (dose: 10.0 mg/kg/injection, schedule: Q01DX009 (ip), vehicle: other): 2 of 6
survivor count (dose: 20.0 mg/kg/injection, schedule: Q01DX009 (ip), vehicle: other): 3 of 6

Cc1ccc(NC(=O)N2c3ccccc3SC2c2ccco2)c(C)c1 (stereo not given)
survivor count [5]: 6 of 6
survivor count [6]: 6 of 6

C=CCNC(=S)NNC(=O)CNC(c1ccc(OC)cc1)C(CC)c1ccc(OC)cc1 (stereo not given)
survivor count [1]: 2 of 6

CNc1ccc(CN2CCCCC2)cc1C
survivor count (dose: 7.5 mg/kg/injection, schedule: Q01DX005 (ip), vehicle: Klucel (hydroxypropylcellulose) (HPC)): 0 of 6
survivor count (dose: 15.0 mg/kg/injection, schedule: Q01DX005 (ip), vehicle: Klucel (hydroxypropylcellulose) (HPC)): 0 of 6
survivor count (dose: 60.0 mg/kg/injection, schedule: Q01DX005 (ip), vehicle: Klucel (hydroxypropylcellulose) (HPC)): 1 of 6
survivor count (dose: 120.0 mg/kg/injection, schedule: Q01DX005 (ip), vehicle: Klucel (hydroxypropylcellulose) (HPC)): 0 of 6
survivor count [7]: 0 of 6

CN1CCc2cc3c(cc2C1O)OCO3 (stereo not given)
survivor count [2]: 2 of 6

COc1ccc(/C=C2/SC(=S)N(C(C)C)C2=O)cc1OC
survivor count (dose: 50.0 mg/kg/injection, schedule: Q01DX009 (ip), vehicle: saline with Tween-80): 6 of 6
survivor count [5]: 6 of 6
survivor count [6]: 5 of 6

CC(C)(C)n1nnnc1N
survivor count (dose: 100.0 mg/kg/injection, schedule: Q01DX009 (ip), vehicle: Klucel (hydroxypropylcellulose) (HPC)): 6 of 6

Cn1c(/C=C/CO)c(CO)c2c1C(=O)C=C(N1CC1)C2=O
survivor count (dose: 6.0 mg/kg/injection, schedule: Q01DX005 (ip), vehicle: saline): 0 of 6

Cc1ccc2ncccc2c1
survivor count (dose: 400.0 mg/kg/injection, schedule: Q04DX003 (ip), vehicle: saline with Tween-80): 2 of 6

Nc1nc(N)c2nc(CNc3ccc(Cl)c(Cl)c3)cnc2n1
survivor count (dose: 60.0 mg/kg/injection, schedule: Q01DX005 (ip), vehicle: saline with Tween-80): 6 of 6
survivor count (dose: 120.0 mg/kg/injection, schedule: Q01DX005 (ip), vehicle: saline with Tween-80): 6 of 6
survivor count [3]: 6 of 6

C/C(=N/N=C(N)N)c1cn[nH]c1C
T/C [7]: 125 % of control

Reference: PubChem BioAssay AID330 (DTP/NCI, 2004)
